Our source for the binding values is publication PMC11929074, “An in vitro platform for the enzymatic characterization of the rhomboid protease RHBDL4” (The Journal of Biological Chemistry, 2025).

Positions count from the first letter of the chain named. Names and notes keep the numbering of the source. No constants are given. Whether binding was seen depends on the method and setting.

Holding throughout (assay): SEC; Superdex-75 10/300 GL, 50 mM Hepes pH 7.4, 250 mM NaCl, 10% glycerol, 0.1% DDM; detergent-solubilized protein; both purified
(In general: In gel filtration, larger molecules generally elute earlier.)

The target of assay [1] is T1, WT RHBDL4 (human rhomboid protease RHBDL4, recombinant) (human) (UniProt Q8TEB9).
T1 sequence: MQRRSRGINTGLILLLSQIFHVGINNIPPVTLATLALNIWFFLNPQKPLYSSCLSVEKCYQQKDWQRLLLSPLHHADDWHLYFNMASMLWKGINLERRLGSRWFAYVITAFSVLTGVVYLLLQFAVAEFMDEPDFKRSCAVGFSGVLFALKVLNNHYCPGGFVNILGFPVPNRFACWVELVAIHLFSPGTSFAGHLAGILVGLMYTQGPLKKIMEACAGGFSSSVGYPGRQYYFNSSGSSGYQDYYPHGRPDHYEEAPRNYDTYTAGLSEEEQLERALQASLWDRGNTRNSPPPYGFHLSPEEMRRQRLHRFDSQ

The target of a further assay is RHBDL4-Ax3G (human) (UniProt Q8TEB9).
The next assay concerns the target RHBDL4-AR (human) (UniProt Q8TEB9).
In assay [2] the target is inactive RHBDL4-S144A (human) (UniProt Q8TEB9).

B1: WT RHBDL4 (human rhomboid protease RHBDL4, recombinant) (enzyme, UniProt Q8TEB9 1-315)
chain: T1 sequence
For B1, the binding result in assay [1] is given as “no binding”.

B2: RHBDL4-Ax3G (enzyme, UniProt Q8TEB9 1-315)
chain: T1 sequence with G198A
B2: the binding result with RHBDL4-Ax3G (human) was “no binding”.

B3: RHBDL4-AR (enzyme, UniProt Q8TEB9 1-315)
chain: T1 sequence with W65A
Consider B3, for which, in the assay with RHBDL4-AR (human), the binding entry is “no binding”.

B4: inactive RHBDL4-S144A (enzyme, UniProt Q8TEB9 1-315)
chain: T1 sequence with S144A
With B4, in assay [2], the binding entry is reported as “no binding”.
